Measured values: patent publication US11427615B2 (XDCEXPLORER (SHANGHAI) CO., LTD., priority 2017, dated 2022)

How the values were obtained:
[1] = general procedure: Fmoc solid-phase peptide synthesis; Rink Amide MBHA resin (0.5 mmol/g); HATU/HOAt/DIPEA (first residue); DIC/HOBt; HBTU/HOBt/DIPEA; conditions: whole synthesis, scale 0.26 g resin (0.5 mmol/g), trifluoroacetate; acetate by salt conversion
[2] = general procedure: Fmoc solid-phase peptide synthesis; Rink Amide MBHA; HATU/HOAt/DIPEA (first residue); DIC/HOBt; HBTU/HOBt/DIPEA; conditions: whole synthesis, trifluoroacetate, acetate by salt conversion

Palm-PEG8-Gly-Gly-(D-Tyr)-Hyp-Asn-Thr-Phe-azaGly-Leu-Arg(Me)-Trp-NH2
isolated mass [1]: 20.4 mg

Ac-[D-Phe(2,4-diCl)]—(S-Pip)-Asn-Thr-azaPhe-Gly-Leu-Arg(Me)-Trp-NH2
isolated mass [1]: 45 mg

Ac-Lys(Palm-PEG8)-Gly-Gly-(D-Tyr)-Hyp-Asn-Thr-Phe-azaGly-Leu-Arg(Me)-Trp-NH2
isolated mass [1]: 31 mg

Ac-(D-Tyr)-Hyp-Asn-Thr-Phe-azaNMeGly-Leu-Arg(Me)-Trp-NH2
isolated mass [1]: 11.5 mg

Ac-PEG4-(D-Tyr)-Hyp-Asn-Thr-Phe-azaGly-Leu-Arg(Me)-Trp-NH2
isolated mass [1]: 12.0 mg

Ac-[D-Phe(2,4-diCl)]—(S-Pip)-Asn-Thr-Phe-azaGly-Leu-Phe(4-Pyrazol)-Trp-NH2
isolated mass [1]: 80 mg

Palm-PEG8-Gly-Gly-Tyr-Asn-Trp-Asn-Ser-Phe-Gly-Leu-Arg-Phe-NH2
isolated mass [1]: 10.9 mg

Ac-[D-Phe(2,4-DiCl)]-Hyp-Asn-Thr-Phe-azaPro-Leu-Arg(Me)-Trp-NH2
isolated mass ([2]; scale 0.4 g resin (0.5 mmol/g)): 5.9 mg

Ac-D-Tyr-Hyp-Asn-Thr-Phe-ACPO-Leu-Arg(Me)-Trp-NH2
isolated mass ([2]; scale 1.0 g resin (0.5 mmol/g)): 7.1 mg
